Test results reported in PubChem BioAssay AID504327 (National Center for Advancing Translational Sciences (NCATS), 2011).
Screen size: about 390,000 compounds; about 820 (0.21%) were called active. Where a call stands in place of a potency, no number is given. Inconclusive means that the source gave no clear call. Such entries were picked first, then a sample of the others. The call rests on the fitted dose curve; in most records, active means well fitted inhibition curve with a large enough effect; inconclusive means small, poorly fitted or top-dose-only effect, or another doubt; inactive means no such curve, though single readings can be large or run the other way. Where the call is inconclusive, the potency comes from a doubtful curve fit.
Potency means the concentration at half of the fitted maximal effect.

Amino acid sequences for entries named in this document (tags omitted).
UniProt Q92830, whole entry, looked up: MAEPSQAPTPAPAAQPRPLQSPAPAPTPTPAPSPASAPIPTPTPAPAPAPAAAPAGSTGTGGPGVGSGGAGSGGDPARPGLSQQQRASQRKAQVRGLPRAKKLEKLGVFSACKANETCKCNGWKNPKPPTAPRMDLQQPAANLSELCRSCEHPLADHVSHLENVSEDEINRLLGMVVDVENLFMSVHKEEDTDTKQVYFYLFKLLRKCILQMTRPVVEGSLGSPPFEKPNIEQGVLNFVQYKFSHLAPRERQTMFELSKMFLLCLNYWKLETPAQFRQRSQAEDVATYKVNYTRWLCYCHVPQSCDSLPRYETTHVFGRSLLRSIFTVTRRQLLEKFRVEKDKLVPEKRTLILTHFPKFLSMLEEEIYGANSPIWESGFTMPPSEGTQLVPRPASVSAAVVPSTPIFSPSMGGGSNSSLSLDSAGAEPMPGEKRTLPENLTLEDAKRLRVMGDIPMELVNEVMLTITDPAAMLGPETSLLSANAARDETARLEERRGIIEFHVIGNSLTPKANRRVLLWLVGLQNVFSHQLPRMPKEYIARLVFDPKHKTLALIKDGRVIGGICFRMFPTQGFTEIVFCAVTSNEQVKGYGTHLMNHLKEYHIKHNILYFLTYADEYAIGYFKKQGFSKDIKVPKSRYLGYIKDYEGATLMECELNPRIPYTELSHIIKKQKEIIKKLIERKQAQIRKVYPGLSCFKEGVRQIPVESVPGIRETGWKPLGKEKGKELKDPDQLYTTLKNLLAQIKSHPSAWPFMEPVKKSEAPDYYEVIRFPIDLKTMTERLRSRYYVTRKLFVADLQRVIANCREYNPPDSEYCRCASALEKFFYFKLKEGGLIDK

Each molecule was assayed against Histone acetyltransferase KAT2A (Homo sapiens) (UniProt Q92830) (assay: qHTS Assay for Inhibitors of GCN5L2). Settings: GCN5L2 HAT assay, ThioGlo1 CoA-SH fluorescence; series mostly up to 58.9 µM.
Summary of the method: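 Titration-based screen in which CoA formation is detected via maleimide probe ThioGlo1 (50uM) turning fluorescent on thiol reaction; substrates H3(1-25) 75uM and acetyl-CoA 70uM, GCN5L2 20nM, 20 min incubation at room temperature.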
CCc1ccc(C(=O)c2cn(CC(=O)Nc3ccc4c(c3)OCO4)c3cc(OC)c(OC)cc3c2=O)cc1 was tested, and the Potency was inconclusive: 14.1 µM [inhibitor, partial curve]. COc1ccc(S(=O)(=O)Nc2ccc3c(c2)N(C(C)=O)CCC3)cc1F was tested, and the Potency was “inactive”. In the case of Cc1cccc(Oc2nc3c(C)cccn3c(=O)c2/C=C(\C#N)c2nc3ccccc3[nH]2)c1, the Potency is reported as “inactive”. CC(=O)OCC(=O)[C@@]1(O)CCC2C3CCC4=CC(=O)CCC4(C)C3C(=O)CC21C (stereo partly specified) was tested, and the Potency was “inactive”. For O=C(NCc1ccccc1)c1ccc(NC(=O)c2ccco2)cc1, the Potency was inconclusive: 0.562 µM [inhibitor, single point]. For O=[N+]([O-])c1cccc(N/N=C/c2cc([N+](=O)[O-])ccc2O)c1, the Potency was inconclusive: 28.2 µM [inhibitor, partial curve, poor fit]. In the case of CCOC(=O)Nc1ccc2c(c1)N(C(=O)CN(C)C)c1ccccc1CC2, the Potency is reported as “inactive”. For CCOc1ccccc1N1CC(C(=O)NNC(=O)c2cc(OC)c(OC)c(OC)c2)CC1=O (stereo unspecified), the Potency was “inactive”. CCOC(=O)C1=C(C)NC(=O)NC1c1ccc(OCC(=O)Nc2ccccc2)c(OC)c1 (stereo unspecified) was tested, and the Potency was “inactive”. With O=C(/C=C/c1ccc2c(c1)OCO2)N1CCCCC1 the Potency was inconclusive: 31.6 µM [inhibitor, single point]. For S=C(NCc1ccco1)N1CCN(Cc2ccco2)CC1, the Potency was “inactive”. For C[C@@H]1C(c2cccc(Cl)c2)=NN(c2ccccc2)[C@H]1C(=O)N1CCOC1=O, the Potency was inconclusive: 35.5 µM [inhibitor, partial curve]. With CCc1ccc(OCc2ccc(C(=O)O)o2)cc1 the Potency was “inactive”. With Cc1ccnc(SCC(=O)NC2CCCCCC2)n1 the Potency was inconclusive: 7.94 µM [inhibitor, single point]. CC(=O)c1c(C)[nH]c(C(=O)Nc2ccc(C)c(S(=O)(=O)N(C)C)c2)c1C was tested, and the Potency was “inactive”. With O=C(NCc1cccnc1)/C(=C/c1ccc(-c2cccc(C(F)(F)F)c2)o1)NC(=O)c1ccccc1 the Potency was inconclusive: 0.631 µM [inhibitor, partial curve, poor fit]. Cc1ccc(/C=C2/NC(=O)N(Cc3ccc(Br)cc3)C2=O)o1 was tested, and the Potency was inconclusive: 39.8 µM [inhibitor, single point]. With CC1=NN(c2cccc(Cl)c2)C(=O)C1 the Potency was “inactive”. For CCN1CCN(CCCNC(=O)c2ccc(/C=C3/Oc4ccccc4N(Cc4cccc(C)c4)C3=O)cc2)CC1, the Potency was “inactive”. For O=S(=O)(c1ccc(Br)cc1)n1ccc2ccccc21, the Potency was inconclusive: 0.794 µM [inhibitor, single point]. In the case of COc1cccc(NC(=O)CCC2CCN(C(=O)c3ccc(C(C)=O)s3)CC2)c1, the Potency is reported as inconclusive: 6.31 µM [inhibitor, single point].
